Reference: the supplement of paper PMC3334620
Over roughly 33,000 sequences, “E-score (-0.5 to 0.5)” has its median near -0.0014; the highest 2% begin near 0.25. Some of the results follow.

Each sequence was assayed against T1, Cad1 (UniProt P24813) (assay: PBM E-score (8-mer binding enrichment) (E-score (-0.5 to 0.5)); higher = stronger / more preferred TF binding). Conditions: protein concentration: 100 nM; construct: GST-full length.
T1 sequence: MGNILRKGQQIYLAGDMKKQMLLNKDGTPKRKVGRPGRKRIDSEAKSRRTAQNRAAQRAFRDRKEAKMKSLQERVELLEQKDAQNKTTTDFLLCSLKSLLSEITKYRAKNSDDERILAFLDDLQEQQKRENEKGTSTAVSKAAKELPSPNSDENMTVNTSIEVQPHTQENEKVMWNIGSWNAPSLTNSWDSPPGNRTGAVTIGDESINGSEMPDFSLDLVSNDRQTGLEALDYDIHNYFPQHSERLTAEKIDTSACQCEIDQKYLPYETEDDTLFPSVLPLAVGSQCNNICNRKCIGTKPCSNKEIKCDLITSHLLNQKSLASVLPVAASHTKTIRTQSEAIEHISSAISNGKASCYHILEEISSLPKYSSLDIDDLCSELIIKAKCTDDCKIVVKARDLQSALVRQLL
Procedure, shortened: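 Using PURExpress in vitro transcription/translation, GST-tagged yeast transcription factors were made in full-length or DNA-binding-domain form. These were applied at about 100-200 nM to double-stranded universal all-10-mer Agilent arrays, and bound protein was detected with fluorescent anti-GST. Scans were normalised with masliner before the Universal PBM Analysis Suite assigned E-scores to ungapped eight-base words pooled with their reverse complements.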

Sequence	PBM E-score
AACTCGCA	0.0861
GCACATTA	0.117
AGGAGGGG	-0.146
AAATTGAA	-0.0338
CTCACGAA	0.0339
TAGAGATA	0.0209
CCGACGTC	0.057
ACTGATAA	0.172
CTATTCTC	0.0992
CTGGGCAC	-0.182
CATACTAA	0.157
ACTCCTCT	-0.186
CATAGTGC	0.0541
GGTTTGAA	0.195
CGCGGAGC	-0.241
ATATTCCG	0.165
AAGTTAGC	0.129
CAACGTAG	0.059
ATACGACG	0.0655
GCAGACGA	0.0685
CCGTTAGA	0.0816
TGTGCACA	-0.0189
CCCGTTGC	-0.176
GCTGCGAC	-0.11
GCAAGTTA	-0.0329

Sequence	PBM E-score
GCGGCACC	0.0327
CGCTCTTA	0.216
CTGACCCA	-0.232
ACGACAAT	0.126
AAGGTGGT	-0.019
ACCACTAA	0.228
GCATGATA	0.124
CCAGTCAG	-0.25
CGAACAAG	0.128
ATTAGAGA	-0.033
AGTGTGTC	0.103
CGCAAGGA	0.107
GGGCTATA	-0.149
ACACCCGT	-0.0752
GTCCGAAA	0.177
GATAGAGA	-0.0868
ACCGGAAT	-0.0448
CAAATGAG	0.0584
GAACGGAA	-0.0319
AGGCCGCG	0.0156
CAAACTCG	0.0163
AGTATGAG	0.0653
CGTTAGAC	-0.0326
ATTCGCAC	0.00983
AATGGTTG	0.0273

Sequence	PBM E-score
AAAACGAA	0.133
AGCCCGTC	-0.217
CGGATGCC	0.136
AATATTGG	0.0135
CACATATA	0.0867
TGAAGTCA	-0.0532
CATTGATA	0.124
GCCACCCC	-0.206
ACAGACGT	0.0529
CATGAACA	0.152
AATTCTCC	0.13
CCCTGGAC	0.00363
GCCTATTA	0.0599
CACGACAG	0.0344
AATAACAG	0.0939
CAACAGGA	-0.182
ACCGCACT	-0.0733
CCTATTTA	0.139
AGGAACCC	-0.107
ACCTCGCT	0.0401
ATACCCGC	0.0369
CTACGGGA	0.0201
AGTCGAAG	-0.0954
GTTCGAAC	0.224
CTTAAGGA	0.0352

Sequence	PBM E-score
ATGCTCTC	-0.0595
ACGTGGCG	-0.0807
ATCGAAAG	0.0605
GGTGCACA	-0.211
AAGACAGA	0.129
AAACATTT	0.1
TATATAGA	0.0931
AGGTGCGG	-0.0567
ACTTAACC	0.0171
GAGCTCCC	-0.297
ATCAGGAG	0.0619
AGCGCCAC	-0.0814
AAAAGATC	-0.12
TGAAGTAA	-0.0446
TACCTGGA	0.126
AGCTTCAC	-0.0133
CTTATTCC	0.0685
CGGCGACC	-0.144
ATAGAGAC	-0.0816
ATACAGAC	0.0544
GTAAGTAA	-0.0957
CGAGTAGC	0.172
GAGATAAC	0.159
GTAGATCA	0.0116
CCCTGTCG	-0.127

Sequence	PBM E-score
AGCCTAAA	0.0556
ATCAGGTA	0.0427
CACATGCA	-0.0306
ATAGTGAG	0.0376
AAGTGGAC	-0.097
TGCTATAA	-0.196
AATAAATT	0.282
ACATGCGC	0.166
AAGGGGAC	-0.15
ATCTACAA	-0.00702
GTAATCTA	0.268
CACCATGG	-0.247
ACGCGCTC	0.125
AGTTTCAG	-0.11
ACCGGTCT	-0.314
AAGGACGC	-0.0361
ATGAAAAA	0.27
CCGGACCC	-0.145
CAGTTAAG	0.0983
ACGGCTAC	0.0723
ACCAACGT	0.0535
CGTGAAGC	-0.0863
TGAGGAAA	-0.0123
AAGCGCGT	0.149
AAGAGTAG	-0.0348

Sequence	PBM E-score
ACATTCGC	0.0324
AAGTGGGT	0.077
ACTCACTA	0.0828
ATCGGCAG	-0.128
GTAGGCTA	0.0272
ATACAACA	0.184
ACAAACGG	0.0977
AGAGCTCC	-0.259
ATAGTGGA	0.143
CATCGTGA	-0.0296
CGTTCGTC	0.248
CTGTGAAC	0.137
CTTTAGCC	-0.00983
GGCCCCTA	-0.28
CCCTTATC	0.0481
TAGGTCGA	0.131
GACAACGA	0.0671
ATCAATAC	0.0887
GAGATGCC	-0.136
CCAGATGG	-0.087
CCATCTAC	-0.105
CTCGACGC	0.0779
TAAGATTA	0.155
CTGTACAC	-0.0207
ACGTTCAC	-0.0258

Sequence	PBM E-score
ACTATAGC	-0.169
CGGAAATC	0.147
AATGGCAA	-0.11
AGACGCTA	-0.0373
CCCGCCTC	-0.111
CCCGGAAG	-0.097
CATAGAGA	-0.0244
CCGGACAG	0.0494
ACCACCGC	0.0188
CAATTACA	0.241
CCTAGCAC	-0.199
AATGACAC	-0.0164
GGTAGGAC	-0.0374
AGGTCACG	-0.126
ATATTAGC	0.178
ATAGCGGC	0.0738
GGCACTCA	-0.28
ATAGGGAA	-0.0908
CGACAAGA	0.0598
CTCACTCA	0.0891
TGCGCGCA	0.301
ATCCTTCC	-0.304

Exported in CSV form: entries from further up.
Sequence,PBM E-score
ATAGCGGC,0.0738
GGCACTCA,-0.28
ATAGGGAA,-0.0908
CGACAAGA,0.0598
CTCACTCA,0.0891
